Laboratory results as given in US20250387484A1 (US Dept. of Health and Human Services, published 2025).
Results are given in words; binding and its absence hold for the method and conditions named. Some binding calls cover weakened binding; strength is not graded here.

Key:
cynomolgus CD25 [1] = target: T1, cynomolgus CD25 (cynomolgus, UniProt H6WS54 22-213); assay: SPR (BIACORE 8K), antibody captured on a Protein A chip, cynomolgus CD25 injected as analyte at 12.5-800 nM
T1 construct: Analyte in the SPR assay; also called CD25 (sIL-2 Receptor α)
T1 sequence: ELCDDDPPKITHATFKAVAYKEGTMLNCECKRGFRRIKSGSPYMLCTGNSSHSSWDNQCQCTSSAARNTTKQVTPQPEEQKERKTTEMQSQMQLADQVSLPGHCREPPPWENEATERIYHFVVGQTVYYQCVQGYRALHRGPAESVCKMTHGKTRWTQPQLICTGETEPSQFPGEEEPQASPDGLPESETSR

[2] = target: T2, human CD25 on KIT-225 cells (human, UniProt P01589 22-272); assay: FACS on CD25-expressing KIT-225 cells (legend of FIG. 2)
T2 construct: whole, on cells; also called hCD25; IL-2Rα
T2 sequence (looked up): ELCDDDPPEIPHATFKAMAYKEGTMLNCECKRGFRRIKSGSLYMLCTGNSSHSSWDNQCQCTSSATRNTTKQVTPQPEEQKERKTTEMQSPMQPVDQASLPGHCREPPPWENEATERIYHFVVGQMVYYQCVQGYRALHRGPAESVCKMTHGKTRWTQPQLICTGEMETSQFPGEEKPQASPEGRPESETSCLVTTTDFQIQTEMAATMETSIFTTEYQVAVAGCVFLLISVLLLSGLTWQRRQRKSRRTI

[3] = target: T2, human CD25 on KIT-225 cells; assay: flow cytometry (FACS) on CD25-expressing KIT-225 cells, secondary antibody, MFI against antibody concentration
Description: KIT-225 cells were washed once with FACS buffer, counted, and resuspended at a concentration of 1×10⁶/mL in FACS buffer. To 5 mL (5×10⁶ total) of cells, 25 μL of viable dye (Thermo Fisher, L34974, equivalent to 1:200 dilution) was added and mixed well. After incubation at 4° C. for 30 minutes, cells were washed twice with FACS buffer (200×g, 5 minutes each). Cells were resuspended in 5 mL FACS buffer and 100 μL was added per well, followed by addition of 100 μL diluted antibody. The solution was mixed by pipetting up and down and then incubated at 4° C. for 60 minutes, after which cells were washed twice with FACS buffer (200×g, 5 minutes each). Cells were resuspended in 100 μL FACS buffer. Fifty μL of secondary antibody was diluted in 5 mL FACS buffer (equivalent to 1:100 dilution), and 100 μL was added to each well and mixed by pipetting up and down. Following incubation at 4° C. for 30 minutes, cells were washed twice with FACS buffer (200×g, 5 minutes each), and resuspended in approximately 250 μL FACS buffer. FACS analysis was performed with Attune Flow cytometer using tube reading module.

cynomolgus CD25 [4] = target: T1, cynomolgus CD25; assay: SPR, Biacore 8K
cynomolgus CD25 [5] = target: T1, cynomolgus CD25; assay: SPR (legend of FIG. 1)
[6] = target: T2, human CD25 on KIT-225 cells; assay: FACS on CD25-positive KIT-225 cells

Measured: binding

B1: antibody 14564 (antibody, human IgG4 S228P, kappa, V domains shown)
VH: EVQLVESGGGLVQPGGSLRLSCAASGFTFSSWGMSWVRQAPGKGLELVSTINGYGDTTYYPDSVKGRFTISRDNSKNTLYLQMNSLRAEDTAVYYCARDRDYSNSYYYAHDYWGQGTLVTVSS
VL: EIVLTQSPATLSLSPGERATLSCRASSYVSFMHWLQQKPGQAPRPWIYATANLASGVPARFSGSGSGTDYTLTISSLEPEDFAVYYCQQWSSNPPAFGGGTKVEIKR
binds: all assays above
